Like-named read-outs stand apart in the source and are kept apart here. No constants are given. Whether binding was seen depends on the method and setting. For some assays here: In cells and extracts the contact can be indirect. Some results given as binding are weak or reduced against the parent protein; the word gives no strength.
B1: recombinant human S100A8 (protein, UniProt P05109 1-93)
chain: MLTELEKALNSIIDVYHKYSLIKGNFHAVYRDDLKKLLETECPQYIRKKGADVWFKELDINTDGAVNFQEFLILVIKMGVAAHKKSHEESHKE
B2: S100A8 of neutrophils (protein, UniProt P05109 1-93)
chain: MLTELEKALNSIIDVYHKYSLIKGNFHAVYRDDLKKLLETECPQYIRKKGADVWFKELDINTDGAVNFQEFLILVIKMGVAAHKKSHEESHKE
B3: recombinant human S100A9 (protein, UniProt P06702 1-114)
chain: MTCKMSQLERNIETIINTFHQYSVKLGHPDTLNQGEFKELVRKDLQNFLKKENKNEKVIEHIMEDLDTNADKQLSFEEFIMLMARLTWASHEKMHEGDEGPGHHHKPGLGEGTP
B4: recombinant human S100A8/A9 heterodimer (calprotectin), 1:1 complex (complex, UniProt P05109 1-93; P06702 1-114)
chain 1: MLTELEKALNSIIDVYHKYSLIKGNFHAVYRDDLKKLLETECPQYIRKKGADVWFKELDINTDGAVNFQEFLILVIKMGVAAHKKSHEESHKE
chain 2: MTCKMSQLERNIETIINTFHQYSVKLGHPDTLNQGEFKELVRKDLQNFLKKENKNEKVIEHIMEDLDTNADKQLSFEEFIMLMARLTWASHEKMHEGDEGPGHHHKPGLGEGTP

Sequences of proteins named here, by UniProt entry; tags and fusion partners are left off.
UniProt P12004: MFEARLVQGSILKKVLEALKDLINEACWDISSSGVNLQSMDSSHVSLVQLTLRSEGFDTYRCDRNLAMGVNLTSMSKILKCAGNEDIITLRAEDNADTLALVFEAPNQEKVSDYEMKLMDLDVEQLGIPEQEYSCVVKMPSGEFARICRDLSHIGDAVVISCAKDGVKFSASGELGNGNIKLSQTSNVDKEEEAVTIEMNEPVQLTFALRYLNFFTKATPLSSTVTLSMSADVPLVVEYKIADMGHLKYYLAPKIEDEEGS
UniProt P14598: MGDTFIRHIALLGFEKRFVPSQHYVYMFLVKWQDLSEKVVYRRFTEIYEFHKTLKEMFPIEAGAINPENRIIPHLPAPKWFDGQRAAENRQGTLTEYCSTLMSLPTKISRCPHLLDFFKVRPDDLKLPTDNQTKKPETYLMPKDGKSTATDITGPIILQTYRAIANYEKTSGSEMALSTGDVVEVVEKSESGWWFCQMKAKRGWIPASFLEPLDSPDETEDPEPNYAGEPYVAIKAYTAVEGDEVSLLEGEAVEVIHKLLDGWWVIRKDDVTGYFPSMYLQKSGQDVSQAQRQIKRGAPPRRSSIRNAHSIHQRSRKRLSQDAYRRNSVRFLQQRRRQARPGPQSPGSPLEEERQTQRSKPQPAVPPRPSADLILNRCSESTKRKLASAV

Experiments:
[1] = target: cytosolic proliferating cell nuclear antigen (PCNA) of neutrophils (human (endogenous in neutrophils)) (UniProt P12004); test: proximity ligation
[2] = target: proliferating cell nuclear antigen (PCNA), recombinant (UniProt P12004); test: SPR
[3] = target: cytosolic proliferating cell nuclear antigen (PCNA) of neutrophils (human (endogenous in neutrophils)) (UniProt P12004); test: proximity ligation; remark: listed apart in the source

| Molecule | binding [2] | other results |
| --- | --- | --- |
| p47phox of neutrophils, cytosolic NADPH oxidase subunit (from UniProt P14598 1-390) |  | binding [1]: binds |
| B1 | binds |  |
| B2 |  | binding [3]: binds |
| B3 | no binding (tested: 2 μM) |  |
| B4 | no binding (tested: 2 μM) |  |

— article doi:10.1101/2022.10.12.22280984
